Values from PubChem BioAssay AID1224830 (NIAID, 2016)

Aim: 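Regulators of TLR4 signalling towards TNF-alpha in macrophage-like cells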 (primary screen)
Cell system: human THP-1 monocytic leukaemia cells, TNF dual-luciferase reporter clone, PMA-differentiated to macrophage-like cells
Reagents: siRNA pool against human genes, 50 nM
Timing: LPS for 4 h, given about 3 days after siRNA transfection
Conditions: bacterial LPS (TLR4 ligand), 10 ng/ml
Measured: 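TNF firefly reporter luminescence divided by renilla, normalised to the plate median, then turned into a robust z-score for each replicate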
Reading the numbers: TNF reporter robust z-score: higher = stronger TNF reporter response to LPS
Active means: 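Each well counts as active if its z-score is over 2.8 or under -1.5; controls are left without a call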
Shown is an unselected part of about 18,000 reagents. About 2,900 of all reagents (16%) count as active. 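Calls are made per well; low scores hint the gene aids the LPS response, high scores that it dampens it.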 Repeated entries: four replicate wells of each siRNA pool.

The opening 9 records, ahead of the listing:
| gene symbol | TNF reporter robust z-score | Call |
| --- | --- | --- |
| LILRA3 | -0.15 | inactive |
| LILRA3 | 1.07 | inactive |
| LILRA3 | -1.1 | inactive |
| LILRA3 | -0.36 | inactive |
| SEC61G | 2.08 | inactive |
| SEC61G | 0.19 | inactive |
| SEC61G | 2.52 | inactive |
| SEC61G | 0.12 | inactive |
| POTEH | -1.05 | inactive |

The listing, from the first entry:
| gene symbol | TNF reporter robust z-score | Call |
| --- | --- | --- |
| LILRA3 | -0.15 | inactive |
| LILRA3 | 1.07 | inactive |
| LILRA3 | -1.1 | inactive |
| LILRA3 | -0.36 | inactive |
| SEC61G | 2.08 | inactive |
| SEC61G | 0.19 | inactive |
| SEC61G | 2.52 | inactive |
| SEC61G | 0.12 | inactive |
| POTEH | -1.05 | inactive |
| POTEH | -0.32 | inactive |
| POTEH | -0.85 | inactive |
| POTEH | 0.61 | inactive |
| SOX14 | -0.01 | inactive |
| SOX14 | -0.35 | inactive |
| SOX14 | -1.16 | inactive |
| SOX14 | -0.59 | inactive |
| OR10K2 | -0.55 | inactive |
| OR10K2 | 0.12 | inactive |
| OR10K2 | -0.36 | inactive |
| OR10K2 | -0.63 | inactive |
| RNF169 | 0.13 | inactive |
| RNF169 | -0.89 | inactive |
| RNF169 | 0.07 | inactive |
| RNF169 | -0.97 | inactive |
| AKAP12 | 0.24 | inactive |
| AKAP12 | -0.56 | inactive |
| AKAP12 | -0.83 | inactive |
| AKAP12 | -0.27 | inactive |
| PTGER2 | -1.2 | inactive |
| PTGER2 | -1.29 | inactive |
| PTGER2 | -1 | inactive |
| TSPAN15 | 1.13 | inactive |
| TSPAN15 | 0.41 | inactive |
| TSPAN15 | 0.69 | inactive |
| TSPAN15 | 1.51 | inactive |
| MCHR1 | 0.39 | inactive |
| MCHR1 | -0.66 | inactive |
| MCHR1 | -0.3 | inactive |
| MCHR1 | -0.25 | inactive |
| ATN1 | 0.26 | inactive |
| ATN1 | -0.31 | inactive |
| ATN1 | 0.12 | inactive |
| ATN1 | 0.68 | inactive |
| SMYD1 | 0.33 | inactive |
| SMYD1 | -0.01 | inactive |
| SMYD1 | 0.72 | inactive |
| SMYD1 | 2.03 | inactive |
| SPMIP8 | 0.04 | inactive |
| SPMIP8 | 1.35 | inactive |
| SPMIP8 | 2.99 | active |
| SPMIP8 | 2.28 | inactive |
| HTRA4 | -1.12 | inactive |
| HTRA4 | -1.02 | inactive |
| HTRA4 | -0.45 | inactive |
| HTRA4 | 0.8 | inactive |
| LCE2C | -0.43 | inactive |
| LCE2C | -0.44 | inactive |
| LCE2C | -1.01 | inactive |
| LCE2C | -1.15 | inactive |
| RIPK1 | -0.63 | inactive |
| RIPK1 | -1.05 | inactive |
| RIPK1 | -0.74 | inactive |
| RIPK1 | -0.86 | inactive |
| IQSEC1 | -0.3 | inactive |
| IQSEC1 | -0.84 | inactive |
| IQSEC1 | -1.14 | inactive |
| IQSEC1 | 0.24 | inactive |
| CLDN12 | 0.21 | inactive |
| CLDN12 | 0.8 | inactive |
| CLDN12 | 0.74 | inactive |
| CLDN12 | 0.92 | inactive |
| ANKRD13A | -0.72 | inactive |
| ANKRD13A | 0.52 | inactive |
| ANKRD13A | 0.03 | inactive |
| ANKRD13A | -0.16 | inactive |
| PLAG1 | -1.44 | inactive |
| PLAG1 | -1.24 | inactive |
| PLAG1 | -0.79 | inactive |
| PLAG1 | -0.82 | inactive |
| WDR75 | -0.58 | inactive |
| WDR75 | -0.22 | inactive |
| WDR75 | 0.26 | inactive |
| WDR75 | 0.61 | inactive |
| DHODH | 1.82 | inactive |
| DHODH | 1.53 | inactive |
| DHODH | 2.93 | active |
| DHODH | 1.97 | inactive |
| SCN9A | 2.64 | inactive |
| SCN9A | 1.23 | inactive |
| SCN9A | 0.95 | inactive |
| SCN9A | 1.46 | inactive |
| IL12B | 0.83 | inactive |
| IL12B | 0.38 | inactive |
| IL12B | -0.47 | inactive |
| IL12B | -0.14 | inactive |
| MORF4L2 | -0.63 | inactive |
| MORF4L2 | -0.37 | inactive |
| MORF4L2 | -0.5 | inactive |
| MORF4L2 | -0.34 | inactive |
| FMN2 | 0.43 | inactive |
| FMN2 | 0.78 | inactive |
| FMN2 | -1.46 | inactive |
| FMN2 | -1.02 | inactive |
| SPHKAP | 2.51 | inactive |
| SPHKAP | 2.97 | active |
| SPHKAP | 1.68 | inactive |
| SPHKAP | 2.96 | active |
| CDC34 | 0.03 | inactive |
| CDC34 | -0.95 | inactive |
| CDC34 | -1.23 | inactive |
| CDC34 | -0.5 | inactive |
